These results are taken from the supplement of paper PMC10849652.

Sequences of proteins named here, by UniProt entry; tags and fusion partners are left off. A change or cut given only in a name is not applied to a line headed by its entry.
UniProt Q9UKU7: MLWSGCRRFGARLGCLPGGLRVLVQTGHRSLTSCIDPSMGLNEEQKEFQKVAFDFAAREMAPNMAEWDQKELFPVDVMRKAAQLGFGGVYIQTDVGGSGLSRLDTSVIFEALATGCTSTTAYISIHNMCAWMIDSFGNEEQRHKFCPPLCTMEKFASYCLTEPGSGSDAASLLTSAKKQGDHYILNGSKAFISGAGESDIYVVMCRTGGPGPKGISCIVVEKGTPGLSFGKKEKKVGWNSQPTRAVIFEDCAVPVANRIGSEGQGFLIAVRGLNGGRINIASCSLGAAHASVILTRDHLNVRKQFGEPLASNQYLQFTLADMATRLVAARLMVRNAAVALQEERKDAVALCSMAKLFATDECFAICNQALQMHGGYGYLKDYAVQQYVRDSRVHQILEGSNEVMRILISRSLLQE
UniProt Q5JTZ9, whole entry, looked up: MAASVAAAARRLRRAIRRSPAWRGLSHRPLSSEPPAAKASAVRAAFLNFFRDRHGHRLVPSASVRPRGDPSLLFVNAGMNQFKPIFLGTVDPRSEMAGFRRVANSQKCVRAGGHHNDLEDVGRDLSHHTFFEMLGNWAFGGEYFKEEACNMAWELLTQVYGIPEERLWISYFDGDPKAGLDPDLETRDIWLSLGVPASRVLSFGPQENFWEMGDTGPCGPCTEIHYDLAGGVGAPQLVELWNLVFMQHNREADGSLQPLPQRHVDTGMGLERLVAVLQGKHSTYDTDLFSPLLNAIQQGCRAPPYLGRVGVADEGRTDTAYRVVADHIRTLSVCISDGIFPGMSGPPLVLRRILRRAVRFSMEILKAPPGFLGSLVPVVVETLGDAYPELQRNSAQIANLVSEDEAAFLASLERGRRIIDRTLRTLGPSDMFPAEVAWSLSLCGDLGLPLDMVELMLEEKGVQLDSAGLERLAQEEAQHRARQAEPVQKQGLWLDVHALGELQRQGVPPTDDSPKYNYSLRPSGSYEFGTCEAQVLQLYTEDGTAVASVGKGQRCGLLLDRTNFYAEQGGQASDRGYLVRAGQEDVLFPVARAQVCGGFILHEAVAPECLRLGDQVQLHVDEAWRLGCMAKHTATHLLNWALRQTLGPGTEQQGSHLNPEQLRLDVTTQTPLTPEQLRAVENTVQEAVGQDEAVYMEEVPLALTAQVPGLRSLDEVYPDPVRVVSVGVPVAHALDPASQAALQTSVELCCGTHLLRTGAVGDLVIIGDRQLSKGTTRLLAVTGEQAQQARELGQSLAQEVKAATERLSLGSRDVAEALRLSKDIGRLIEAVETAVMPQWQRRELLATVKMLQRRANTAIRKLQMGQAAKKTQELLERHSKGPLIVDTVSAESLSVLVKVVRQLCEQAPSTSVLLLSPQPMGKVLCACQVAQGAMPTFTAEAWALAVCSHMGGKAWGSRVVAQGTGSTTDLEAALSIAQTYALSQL
UniProt Q9NX38: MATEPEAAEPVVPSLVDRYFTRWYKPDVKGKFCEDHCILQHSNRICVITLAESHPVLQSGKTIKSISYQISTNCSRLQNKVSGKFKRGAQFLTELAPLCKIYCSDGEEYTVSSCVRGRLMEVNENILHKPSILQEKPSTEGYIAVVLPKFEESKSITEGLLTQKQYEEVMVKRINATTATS
UniProt O95870: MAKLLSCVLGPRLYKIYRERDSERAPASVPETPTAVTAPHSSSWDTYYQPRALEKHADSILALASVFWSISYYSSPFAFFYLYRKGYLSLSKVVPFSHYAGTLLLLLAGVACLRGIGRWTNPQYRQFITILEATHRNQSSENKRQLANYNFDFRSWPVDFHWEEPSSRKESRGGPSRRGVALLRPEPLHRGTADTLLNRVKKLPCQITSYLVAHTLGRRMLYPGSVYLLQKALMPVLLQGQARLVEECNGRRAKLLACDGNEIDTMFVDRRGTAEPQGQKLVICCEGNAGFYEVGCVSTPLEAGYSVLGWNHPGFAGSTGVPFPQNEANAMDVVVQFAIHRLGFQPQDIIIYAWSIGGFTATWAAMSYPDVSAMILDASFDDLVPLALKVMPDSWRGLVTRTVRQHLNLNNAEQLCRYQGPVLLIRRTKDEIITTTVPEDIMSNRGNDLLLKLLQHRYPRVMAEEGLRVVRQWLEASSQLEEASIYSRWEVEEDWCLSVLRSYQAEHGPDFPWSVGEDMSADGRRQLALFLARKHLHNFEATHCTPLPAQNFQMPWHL
UniProt Q86V21: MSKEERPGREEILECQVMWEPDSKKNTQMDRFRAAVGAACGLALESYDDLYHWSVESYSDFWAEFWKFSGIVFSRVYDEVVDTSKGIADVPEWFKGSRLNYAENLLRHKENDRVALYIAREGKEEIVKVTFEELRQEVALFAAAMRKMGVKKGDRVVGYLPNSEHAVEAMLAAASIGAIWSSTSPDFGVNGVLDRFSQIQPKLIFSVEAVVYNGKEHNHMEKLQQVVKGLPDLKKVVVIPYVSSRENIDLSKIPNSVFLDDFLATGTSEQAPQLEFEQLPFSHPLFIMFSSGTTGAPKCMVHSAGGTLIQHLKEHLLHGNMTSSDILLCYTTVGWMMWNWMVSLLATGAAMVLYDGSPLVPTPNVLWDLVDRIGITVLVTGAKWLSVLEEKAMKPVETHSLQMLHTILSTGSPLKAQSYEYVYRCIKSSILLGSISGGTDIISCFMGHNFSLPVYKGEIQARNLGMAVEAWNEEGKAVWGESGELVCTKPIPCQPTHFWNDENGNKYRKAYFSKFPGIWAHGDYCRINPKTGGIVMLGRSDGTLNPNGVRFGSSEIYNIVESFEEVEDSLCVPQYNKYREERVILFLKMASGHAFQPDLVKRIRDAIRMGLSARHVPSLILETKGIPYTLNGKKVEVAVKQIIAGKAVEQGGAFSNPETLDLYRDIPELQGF
UniProt P49588, whole entry, looked up: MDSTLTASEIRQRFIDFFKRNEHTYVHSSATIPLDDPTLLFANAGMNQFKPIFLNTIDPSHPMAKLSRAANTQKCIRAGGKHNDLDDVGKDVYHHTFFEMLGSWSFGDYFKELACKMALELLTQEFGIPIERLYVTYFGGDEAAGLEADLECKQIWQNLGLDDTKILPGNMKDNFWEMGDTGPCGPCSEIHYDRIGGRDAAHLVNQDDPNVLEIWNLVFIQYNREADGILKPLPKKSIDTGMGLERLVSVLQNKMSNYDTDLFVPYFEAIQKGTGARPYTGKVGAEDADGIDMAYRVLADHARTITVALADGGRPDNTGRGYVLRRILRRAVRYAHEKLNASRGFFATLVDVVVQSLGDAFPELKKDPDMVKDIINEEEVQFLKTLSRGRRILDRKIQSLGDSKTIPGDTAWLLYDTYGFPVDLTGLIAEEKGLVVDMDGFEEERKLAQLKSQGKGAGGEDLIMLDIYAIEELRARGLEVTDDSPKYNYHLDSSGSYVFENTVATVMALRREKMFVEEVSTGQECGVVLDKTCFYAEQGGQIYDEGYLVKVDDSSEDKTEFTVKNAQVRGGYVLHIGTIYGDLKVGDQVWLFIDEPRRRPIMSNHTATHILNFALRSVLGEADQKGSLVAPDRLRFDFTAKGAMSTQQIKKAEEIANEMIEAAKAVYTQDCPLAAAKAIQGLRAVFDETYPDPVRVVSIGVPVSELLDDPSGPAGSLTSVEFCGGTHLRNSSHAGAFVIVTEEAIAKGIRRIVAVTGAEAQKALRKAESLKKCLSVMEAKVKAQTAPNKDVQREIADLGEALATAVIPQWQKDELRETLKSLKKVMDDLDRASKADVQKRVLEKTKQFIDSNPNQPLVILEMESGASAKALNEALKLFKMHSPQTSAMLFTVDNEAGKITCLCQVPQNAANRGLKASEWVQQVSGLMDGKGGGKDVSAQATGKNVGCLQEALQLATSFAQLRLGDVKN
UniProt Q9NRK6: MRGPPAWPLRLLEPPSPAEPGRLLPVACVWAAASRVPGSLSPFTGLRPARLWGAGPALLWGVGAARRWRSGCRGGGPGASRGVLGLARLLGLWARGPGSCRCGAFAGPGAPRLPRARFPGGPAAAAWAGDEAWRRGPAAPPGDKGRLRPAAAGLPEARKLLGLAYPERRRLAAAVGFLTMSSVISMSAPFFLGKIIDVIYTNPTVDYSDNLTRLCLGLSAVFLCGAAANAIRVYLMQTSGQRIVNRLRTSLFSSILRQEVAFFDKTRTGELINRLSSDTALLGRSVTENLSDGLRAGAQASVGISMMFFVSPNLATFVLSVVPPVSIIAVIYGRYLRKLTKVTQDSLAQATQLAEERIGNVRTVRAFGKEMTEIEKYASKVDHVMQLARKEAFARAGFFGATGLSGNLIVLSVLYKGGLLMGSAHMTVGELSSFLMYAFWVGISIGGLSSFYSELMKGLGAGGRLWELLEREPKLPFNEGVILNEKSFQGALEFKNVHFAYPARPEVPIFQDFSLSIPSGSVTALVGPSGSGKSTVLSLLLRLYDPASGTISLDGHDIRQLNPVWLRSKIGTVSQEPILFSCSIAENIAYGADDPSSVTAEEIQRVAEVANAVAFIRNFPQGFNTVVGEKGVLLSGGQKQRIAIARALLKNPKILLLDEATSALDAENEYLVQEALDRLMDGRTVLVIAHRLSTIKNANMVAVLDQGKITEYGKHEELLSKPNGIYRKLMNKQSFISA
UniProt P42684, whole entry, looked up: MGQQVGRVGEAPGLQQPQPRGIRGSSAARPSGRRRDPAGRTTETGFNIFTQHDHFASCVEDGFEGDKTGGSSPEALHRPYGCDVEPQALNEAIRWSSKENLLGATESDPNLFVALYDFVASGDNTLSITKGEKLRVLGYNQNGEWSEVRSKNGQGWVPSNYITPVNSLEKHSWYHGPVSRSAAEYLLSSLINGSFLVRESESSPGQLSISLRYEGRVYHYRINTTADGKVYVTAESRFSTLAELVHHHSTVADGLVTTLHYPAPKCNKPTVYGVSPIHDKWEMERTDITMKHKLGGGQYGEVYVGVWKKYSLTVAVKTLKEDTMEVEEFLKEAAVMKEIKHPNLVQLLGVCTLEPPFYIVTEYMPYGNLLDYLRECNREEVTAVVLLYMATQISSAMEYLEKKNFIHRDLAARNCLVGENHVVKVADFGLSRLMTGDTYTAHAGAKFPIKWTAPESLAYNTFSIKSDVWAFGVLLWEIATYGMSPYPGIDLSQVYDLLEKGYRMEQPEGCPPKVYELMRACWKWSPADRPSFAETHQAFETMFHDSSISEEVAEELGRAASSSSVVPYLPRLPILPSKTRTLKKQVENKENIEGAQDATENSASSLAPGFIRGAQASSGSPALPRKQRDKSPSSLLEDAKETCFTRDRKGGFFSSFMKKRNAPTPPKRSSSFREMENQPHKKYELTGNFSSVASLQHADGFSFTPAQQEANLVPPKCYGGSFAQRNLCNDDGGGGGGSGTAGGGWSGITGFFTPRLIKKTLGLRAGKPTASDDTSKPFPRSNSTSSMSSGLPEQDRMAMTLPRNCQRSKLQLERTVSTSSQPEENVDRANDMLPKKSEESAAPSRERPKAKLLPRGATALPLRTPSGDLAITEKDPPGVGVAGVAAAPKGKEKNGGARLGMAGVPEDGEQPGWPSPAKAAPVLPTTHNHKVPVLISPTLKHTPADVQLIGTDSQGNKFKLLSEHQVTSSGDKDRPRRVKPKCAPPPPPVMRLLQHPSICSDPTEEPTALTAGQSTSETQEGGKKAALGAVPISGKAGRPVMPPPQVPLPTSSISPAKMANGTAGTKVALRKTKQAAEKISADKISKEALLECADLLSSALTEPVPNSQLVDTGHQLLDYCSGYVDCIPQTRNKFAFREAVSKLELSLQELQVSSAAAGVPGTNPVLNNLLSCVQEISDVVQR
UniProt Q13685: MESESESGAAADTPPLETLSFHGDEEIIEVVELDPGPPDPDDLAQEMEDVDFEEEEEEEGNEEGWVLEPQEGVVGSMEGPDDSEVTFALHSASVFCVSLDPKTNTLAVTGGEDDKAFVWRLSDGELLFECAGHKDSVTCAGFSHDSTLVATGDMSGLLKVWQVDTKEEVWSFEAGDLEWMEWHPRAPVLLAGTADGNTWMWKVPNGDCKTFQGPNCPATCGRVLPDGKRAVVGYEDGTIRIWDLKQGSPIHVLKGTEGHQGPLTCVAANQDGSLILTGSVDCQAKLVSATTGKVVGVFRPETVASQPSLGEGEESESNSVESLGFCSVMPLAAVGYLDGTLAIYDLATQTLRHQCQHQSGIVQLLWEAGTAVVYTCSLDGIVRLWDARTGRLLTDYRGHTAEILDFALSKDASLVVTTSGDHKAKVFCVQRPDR
UniProt Q6UWZ7: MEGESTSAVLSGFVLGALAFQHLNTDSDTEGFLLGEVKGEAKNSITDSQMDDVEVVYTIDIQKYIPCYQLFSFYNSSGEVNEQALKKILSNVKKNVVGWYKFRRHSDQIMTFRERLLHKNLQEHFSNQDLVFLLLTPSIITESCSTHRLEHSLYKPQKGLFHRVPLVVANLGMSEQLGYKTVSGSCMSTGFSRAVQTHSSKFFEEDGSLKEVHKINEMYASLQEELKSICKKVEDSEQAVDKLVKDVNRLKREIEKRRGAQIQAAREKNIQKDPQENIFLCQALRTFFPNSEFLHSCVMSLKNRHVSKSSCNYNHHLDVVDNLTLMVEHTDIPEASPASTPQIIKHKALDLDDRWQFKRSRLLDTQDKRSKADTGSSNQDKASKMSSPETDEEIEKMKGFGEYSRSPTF

The other results are listed elsewhere or left out.

Compound in the first assay: CC1=C(SC2=C1C(=N[C@H](C3=NN=C(N32)C)CC(=O)N)C4=CC=C(C=C4)Cl)C
Kind of assay: log2 fold change, soluble protein after heating vs DMSO (PISA); higher = thermal stabilisation; K562 lysate, 10 uM; active = over 0.2 and 3.5 SD of the protein, either way, in both replicates (recomputed). The method, boiled down: (§1)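 Dounce homogenisation of K562 pellets in PBS pH 7.4 with 1 mM MgCl2 produced a crude extract, used at 1 mg/mL protein. Exposure to 10 μM compound lasted 30 min, and aliquots were then heated for 3 min across 48°C-58°C, pooled and brought to 0.5% NP-40 at 4°C. The supernatant after 21,000xg for 90 min was quantified by TMTpro 16plex LC-MS/MS with channel sums equalised. Duplicate values are given as log-two fold change in thermal stability relative to solvent controls.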
With ACAD8 (UniProt Q9UKU7), the log2 fold change is inactive: 0.323.

In the case of AASDH (UniProt Q4L235), the log2 fold change is inactive: -0.059.

As for AARS2 (UniProt Q5JTZ9), the log2 fold change is inactive: -0.076.

ABITRAM (UniProt Q9NX38): the log2 fold change was inactive: 0.01.

On to AARSD1 (UniProt Q9BTE6), for which the log2 fold change is inactive: 0.069.

Consider ABRAXAS2 (UniProt Q15018), for which the log2 fold change is inactive: -0.03.

For ACIN1 (UniProt E7EQT4), the log2 fold change is inactive: 0.015.

In the case of ABHD16A (UniProt O95870), the log2 fold change is inactive: 0.008.

For ABRACL (UniProt Q9P1F3), the log2 fold change is inactive: -0.221.

AACS (UniProt Q86V21): the log2 fold change was inactive: 0.042.

Take AARS (UniProt P49588): the log2 fold change was inactive: 0.

On to ABCB10 (UniProt Q9NRK6), for which the log2 fold change is inactive: 0.016.

ABL2 (UniProt P42684): the log2 fold change was inactive: 0.016.

In the case of AAMP (UniProt Q13685), the log2 fold change is inactive: 0.01.

Take ABRAXAS1 (UniProt Q6UWZ7): the log2 fold change was inactive: 0.034.

As for AATF (UniProt Q9NY61), the log2 fold change is inactive: -0.002.

Turning to ACLY isoform 2 (UniProt P53396), the log2 fold change was inactive: -0.01.

With ABCE1 (UniProt H0Y990), the log2 fold change is inactive: 0.145.

In the case of ABTB2 (UniProt Q8N961), the log2 fold change was inactive: 0.228.

For ACAP3 (UniProt Q96P50), the log2 fold change was inactive: 0.129.

With A0A494C071, A0A494C071, the log2 fold change was inactive: -0.037.

Take AASDHPPT (UniProt Q9NRN7): the log2 fold change was inactive: 0.041.

Take A2ML1 (UniProt A8K2U0): the log2 fold change was inactive: 0.105.

Turning to ABCA3 (UniProt Q99758), the log2 fold change is inactive: 0.038.

Compound in another assay: CC1=C2C(=CC=C1)N=C(N(C2=O)C3=CC=CC=C3C)CN4C=NC5=C(N=CN=C54)N
The description is as above. The method, boiled down:
as §1
Turning to ACAD8 (UniProt Q9UKU7), the log2 fold change is inactive: 0.116.

Consider ABHD4 (UniProt Q8TB40), for which the log2 fold change was inactive: -0.127.

As to AASDH (UniProt Q4L235), the log2 fold change was inactive: -0.046.

Regarding AARS2 (UniProt Q5JTZ9), the log2 fold change is inactive: 0.026.

Regarding ACE (UniProt P12821), the log2 fold change was inactive: 0.015.

Regarding ABITRAM (UniProt Q9NX38), the log2 fold change was inactive: 0.022.

For the target ABHD15 (UniProt Q6UXT9), the log2 fold change is inactive: 0.018.

Take ABRAXAS2 (UniProt Q15018): the log2 fold change was inactive: -0.024.

As for ACIN1 (UniProt E7EQT4), the log2 fold change was inactive: 0.037.

As for ABHD16A (UniProt O95870), the log2 fold change was inactive: 0.07.

AACS (UniProt Q86V21): the log2 fold change was inactive: 0.013.

As to AARS (UniProt P49588), the log2 fold change is inactive: -0.008.

ABCB10 (UniProt Q9NRK6): the log2 fold change is inactive: 0.015.

Turning to ABL2 (UniProt P42684), the log2 fold change was inactive: 0.

As to AAMP (UniProt Q13685), the log2 fold change is inactive: 0.028.

As to ABRAXAS1 (UniProt Q6UWZ7), the log2 fold change was inactive: -0.093.

AATF (UniProt Q9NY61): the log2 fold change is inactive: 0.203.

For ACLY isoform 2 (UniProt P53396), the log2 fold change is inactive: 0.023.

As to AARS1 (UniProt H3BPK7), the log2 fold change was inactive: -0.028.

Turning to ABCE1 (UniProt H0Y990), the log2 fold change was inactive: -0.007.

For AASDHPPT (UniProt Q9NRN7), the log2 fold change is inactive: 0.001.

As for ABCA3 (UniProt Q99758), the log2 fold change is inactive: 0.006.

Compound in the next assay: Cc1sc2c(c1C)C(c1ccc(Cl)cc1)=N[C@@H](CC(=O)OC(C)(C)C)c1nnc(C)n1-2
The assay is described as above. The gist of the method: as §1
As to ACAD8 (UniProt Q9UKU7), the log2 fold change was inactive: 0.012.

Turning to AASDH (UniProt Q4L235), the log2 fold change is inactive: 0.006.

In the case of ACBD5 (UniProt Q5T8D3), the log2 fold change is inactive: -0.108.

For the target AARS2 (UniProt Q5JTZ9), the log2 fold change is inactive: 0.041.

Turning to ABITRAM (UniProt Q9NX38), the log2 fold change is inactive: 0.078.

Consider AARSD1 (UniProt Q9BTE6), for which the log2 fold change is inactive: -0.074.

ABRAXAS2 (UniProt Q15018): the log2 fold change was inactive: 0.061.

In the case of ACIN1 (UniProt E7EQT4), the log2 fold change is inactive: 0.032.

Consider ABHD16A (UniProt O95870), for which the log2 fold change is inactive: 0.059.

As for ABRACL (UniProt Q9P1F3), the log2 fold change is inactive: 0.054.

Take AACS (UniProt Q86V21): the log2 fold change was inactive: -0.002.

Consider AARS (UniProt P49588), for which the log2 fold change is inactive: 0.022.

Take ABCB10 (UniProt Q9NRK6): the log2 fold change is inactive: 0.027.

ABL2 (UniProt P42684): the log2 fold change is inactive: -0.14.

In the case of AAMP (UniProt Q13685), the log2 fold change was inactive: 0.021.

For ABRAXAS1 (UniProt Q6UWZ7), the log2 fold change was inactive: 0.005.

Take AATF (UniProt Q9NY61): the log2 fold change was inactive: 0.014.

With ABCC3 isoform 4 (UniProt O15438), the log2 fold change was inactive: 0.057.

Take ACAP3 (UniProt Q96P50): the log2 fold change is inactive: -0.054.

As for ABCC10 (UniProt Q5T3U5), the log2 fold change was inactive: 0.068.

On to ACBD7 (UniProt Q8N6N7), for which the log2 fold change was inactive: -0.12.

Turning to A0A494C071, A0A494C071, the log2 fold change was inactive: -0.094.

As for AASDHPPT (UniProt Q9NRN7), the log2 fold change is inactive: 0.029.

Take ACAD10 isoform 5 (UniProt Q6JQN1): the log2 fold change was inactive: -0.019.

Take ABCA3 (UniProt Q99758): the log2 fold change was inactive: -0.01.

With ABCA7 (UniProt Q8IZY2), the log2 fold change was inactive: 0.004.
